No constants are given. Whether binding was seen depends on the method and setting. Where a sequence is shown, tags or fusion partners need not be part of it.

For one experiment, the target named is GST-ASNS GATase-2 domain. The experiment is described as follows: pull-down; GST affinity isolation: GST-tagged NEK8 or ASNS proteins on glutathione-Sepharose 4B beads incubated with His-tagged ASNS or NEK8 at 4 °C for five hours; wash with GST binding buffer (2 mM EDTA, 50 mM NaF, 100 mM NaCl, 1% NP-40); immunoblotting; both purified.
A further experiment deals with GST-NEK8 RCC1 domain. Described as above.

B1: His-NEK8 (enzyme, UniProt Q86SG6 1-692)
chain: MEKYERIRVVGRGAFGIVHLCLRKADQKLVIIKQIPVEQMTKEERQAAQNECQVLKLLNHPNVIEYYENFLEDKALMIAMEYAPGGTLAEFIQKRCNSLLEEETILHFFVQILLALHHVHTHLILHRDLKTQNILLDKHRMVVKIGDFGISKILSSKSKAYTVVGTPCYISPELCEGKPYNQKSDIWALGCVLYELASLKRAFEAANLPALVLKIMSGTFAPISDRYSPELRQLVLSLLSLEPAQRPPLSHIMAQPLCIRALLNLHTDVGSVRMRRAEKSVAPSNTGSRTTSVRCRGIPRGPVRPAIPPPLSSVYAWGGGLGTPLRLPMLNTEVVQVAAGRTQKAGVTRSGRLILWEAPPLGAGGGSLLPGAVEQPQPQFISRFLEGQSGVTIKHVACGDFFTACLTDRGIIMTFGSGSNGCLGHGSLTDISQPTIVEALLGYEMVQVACGASHVLALSTERELFAWGRGDSGRLGLGTRESHSCPQQVPMPPGQEAQRVVCGIDSSMILTVPGQALACGSNRFNKLGLDHLSLGEEPVPHQQVEEALSFTLLGSAPLDQEPLLSIDLGTAHSAAVTASGDCYTFGSNQHGQLGTNTRRGSRAPCKVQGLEGIKMAMVACGDAFTVAIGAESEVYSWGKGARGRLGRRDEDAGLPRPVQLDETHPYTVTSVSCCHGNTLLAVRSVTDEPVPP
With B1, the binding result with GST-ASNS GATase-2 domain is on record as “no binding”.

B2: His-tagged ASNS (enzyme, UniProt P08243 1-561)
chain: MCGIWALFGSDDCLSVQCLSAMKIAHRGPDAFRFENVNGYTNCCFGFHRLAVVDPLFGMQPIRVKKYPYLWLCYNGEIYNHKKMQQHFEFEYQTKVDGEIILHLYDKGGIEQTICMLDGVFAFVLLDTANKKVFLGRDTYGVRPLFKAMTEDGFLAVCSEAKGLVTLKHSATPFLKVEPFLPGHYEVLDLKPNGKVASVEMVKYHHCRDVPLHALYDNVEKLFPGFEIETVKNNLRILFNNAVKKRLMTDRRIGCLLSGGLDSSLVAATLLKQLKEAQVQYPLQTFAIGMEDSPDLLAARKVADHIGSEHYEVLFNSEEGIQALDEVIFSLETYDITTVRASVGMYLISKYIRKNTDSVVIFSGEGSDELTQGYIYFHKAPSPEKAEEESERLLRELYLFDVLRADRTTAAHGLELRVPFLDHRFSSYYLSLPPEMRIPKNGIEKHLLRETFEDSNLIPKEILWRPKEAFSDGITSVKNSWFKILQEYVEHQVDDAMMANAAQKFPFNTPKTKEGYYYRQVFERHYPGRADWLSHYWMPKWINATDPSARTLTHYKSAVKA
Take B2: in the experiment with GST-NEK8 RCC1 domain, the binding result is reported as “no binding”.

Source of the values: article PMC11702068, “NEK8 promotes the progression of gastric cancer by reprogramming asparagine metabolism” (Molecular Medicine, 2025).
